For 28 compounds, survivor count and T/C results are on record in PubChem BioAssay AID330 (DTP/NCI, 2004).

This test has as its system P388 leukemia ip, CD2F1 mice, survival T/C. Kind of test: NCI In Vivo Anticancer Drug Screen. Data for tumor model P388 Leukemia (intraperitoneal) in CD2F1 (CDF1) mice. The following applies: T/C endpoint: median survival time, higher T/C = longer survival.
[1] abbreviates: dose: 200.0 mg/kg/injection, schedule: Q04DX003 (ip), vehicle: saline with Tween-80.
Setting [2] is: dose: 50.0 mg/kg/injection, schedule: Q01DX009 (ip), vehicle: saline with Tween-80.
Where [3] appears, read: dose: 100.0 mg/kg/injection, schedule: Q01DX009 (ip), vehicle: saline with Tween-80.
The mark [4] stands for this setting: dose: 200.0 mg/kg/injection, schedule: Q01DX009 (ip), vehicle: saline with Tween-80.
[5] abbreviates: dose: 400.0 mg/kg/injection, schedule: Q04DX002 (ip), vehicle: saline with Tween-80.
The mark [6] stands for this setting: dose: 240.0 mg/kg/injection, schedule: Q01DX005 (ip), vehicle: saline with Tween-80.
Where [7] appears, read: dose: 200.0 mg/kg/injection, schedule: Q01DX005 (ip), vehicle: Klucel (hydroxypropylcellulose) (HPC).
The mark [8] stands for this setting: dose: 100.0 mg/kg/injection, schedule: Q01DX005 (ip), vehicle: saline with Tween-80.
The mark [9] stands for this setting: dose: 200.0 mg/kg/injection, schedule: Q01DX005 (ip), vehicle: saline with Tween-80.
Where [10] appears, read: dose: 120.0 mg/kg/injection, schedule: Q01DX005 (ip), vehicle: saline with Tween-80.
Where [11] appears, read: dose: 200.0 mg/kg/injection, schedule: Q01DX009 (ip), vehicle: saline.
Setting [12] is: dose: 400.0 mg/kg/injection, schedule: Q04DX003 (ip), vehicle: saline with Tween-80.

Molecules are shown by their SMILES. The list shows only some results of the screen, not a fair sample: it gathers tests that were run many times, whatever their T/C, doses with no T/C, and many T/C values between a quarter and a half above the control. Other doses and runs of a compound stand elsewhere. T/C gives the treated animals as a percentage of the vehicle group. Some doses have a count of surviving animals in place of a T/C: the source files T/C as zero there, which appears to mark a toxic dose or a test without result, not a measured value. Some doses without a T/C left all or most animals alive at the check, yet need not have been tolerated: survival well below the control is almost never listed, so the zero probably covers shortened survival too. Counts of survivors are from the toxicity check (mostly the fifth day) where no day follows; animals may have died later. Schedule codes are those of the source, taken here to give the interval after Q, in days (D) or hours (H), and the number of doses after X. Some entries hold several experiments; their values stand side by side, smallest first. Some molecules as drawn cover several salts, stereoisomers or complexes of the source; a dose is that of the sample tested. Where survival is the endpoint, this PubChem deposit counts one and a half times the control or more as active, and values a quarter to a half above the control carry no call in these data; other NCI protocols may use other cut-offs. Additions like (4×) count equal records among those shown. Some T/C values carry the count of animals alive at the toxicity check (mostly the fifth day); without a count, all were alive then.

On to `CCOC(=O)N/N=C(\C)c1nc2ccccc2[nH]1`, for which the survivor count (dose: 120.0 mg/kg/injection, schedule: Q01DX005 (ip), vehicle: Klucel (hydroxypropylcellulose) (HPC)) is reported as 2 of 6 and the survivor count (dose: 240.0 mg/kg/injection, schedule: Q01DX005 (ip), vehicle: Klucel (hydroxypropylcellulose) (HPC)) is 0 of 6.
As for `CN([NH-])C(=S)[S-].CN([NH-])C(=S)[S-].[Ni]`, the survivor count reads like this: (dose: 100.0 mg/kg/injection, schedule: Q04DX003 (ip), vehicle: Klucel (hydroxypropylcellulose) (HPC)) 3 of 6; under setting [1], 5 of 6.
As for `COc1ccc(OC)c(NC=O)c1`, the survivor count reads like this: (dose: 12.5 mg/kg/injection, schedule: Q01DX009 (ip), vehicle: saline with Tween-80) 6 of 6; under setting [2], 6 of 6.
For the compound `O=C(c1ccccc1Cl)n1c(Cl)c(/C=N\Nc2ccc([N+](=O)[O-])cc2)c2ccccc21`, the survivor count reads like this: under setting [2], 1 of 6; under setting [3], 0 of 6; under setting [4], 0 of 6.
Take `Cc1cccc(C)c1NC(=O)C1C(=O)C(=O)N(c2c(C)cccc2C)C1=O` (stereo unspecified): the survivor count (dose: 200.0 mg/kg/injection, schedule: Q04DX002 (ip), vehicle: saline with Tween-80) is listed as 1 of 6 and the survivor count under setting [5] is given as 3 of 6.
For the compound `O=c1[nH]c(-c2ccncc2)nnc1-c1ccc(Cl)cc1`, the survivor count under setting [5] is 2 of 6.
As for `Cc1ccc2nc(C)cc(N=[N+]=[N-])c2c1`, the survivor count under setting [6] is 1 of 6.
For the compound `CC(C)(C)c1ccc(/C=N/NC(=O)c2cccnc2)cc1`, the survivor count under setting [7] was 0 of 5.
Still for that read-out and setting: next, `CS(=O)(=O)c1nnc(-c2cccc[n+]2[O-])s1`: 0 of 6.
As for `CN1CCC(/C=C/c2ccc(Cl)c(Cl)c2)CN1` (stereo unspecified) (tested in a mixture with another compound), the survivor count (dose: 50.0 mg/kg/injection, schedule: Q01DX001 (ip), vehicle: saline) is recorded as 5 of 6; the survivor count (dose: 200.0 mg/kg/injection, schedule: Q01DX001 (ip), vehicle: suspension in saline) was 2 of 6; the survivor count (dose: 400.0 mg/kg/injection, schedule: Q01DX001 (ip), vehicle: suspension in saline) is 0 of 6.
On to `CCN(N=Nc1ccc(OC)cc1)c1ccc(OC)cc1`, for which, under setting [2], the T/C is 133 % of control. Moreover, the survivor count reads like this: under setting [3], 5 of 6; under setting [4], 0 of 6.
Take `Cc1cc(C)c(S(=O)(=O)OCC2OC(OC3(COS(=O)(=O)c4c(C)cc(C)cc4C)OC(COS(=O)(=O)c4c(C)cc(C)cc4C)C(O)C3O)C(O)C(O)C2O)c(C)c1` (stereo unspecified): the survivor count was 6 of 6 (dose: 50.0 mg/kg/injection, schedule: Q01DX009 (ip), vehicle: Klucel (hydroxypropylcellulose) (HPC)); 4 of 6 and 6 of 6 (dose: 100.0 mg/kg/injection, schedule: Q01DX009 (ip), vehicle: Klucel (hydroxypropylcellulose) (HPC)); 6 of 6 (dose: 200.0 mg/kg/injection, schedule: Q01DX009 (ip), vehicle: Klucel (hydroxypropylcellulose) (HPC)).
Regarding `O=C(CCCCCCC(=O)ON1C(=O)CCC1=O)ON1C(=O)CCC1=O`, the T/C (dose: 50.0 mg/kg/injection, schedule: Q01DX005 (ip), vehicle: saline with Tween-80) was 128 % of control; the T/C under setting [8] was 130 % of control (2×); the T/C under setting [9] is 125 and 135 % of control. For the same compound, under “dose: 400.0 mg/kg/injection, schedule: Q01DX005 (ip), vehicle: saline with Tween-80”, the survivor count is recorded as 4 of 5.
For `Nc1ccc(N=Nc2ccncc2)c2ccccc12`, the survivor count under setting [9] is 3 of 6.
Turning to `ClC(Cl)(Cl)C(=NN=C(C(Cl)(Cl)Cl)C(Cl)(Cl)Cl)C(Cl)(Cl)Cl`, the survivor count by setting is: under setting [10], 0 of 6; under setting [6], 0 of 6.
With `CCOC(=O)CC(CS(=O)CP(=O)(OCC)OCC)C(=O)OCC` (stereo unspecified), the survivor count runs as follows: under setting [10], 0 of 6; under setting [6], 0 of 6.
With `OCC1CCN(CCOCc2ccccc2)C1` (stereo unspecified), under setting [6], the survivor count is listed as 3 of 6.
Consider `O=C(NC(Cc1ccccc1)C(=O)O)OCC1c2ccccc2-c2ccccc21` (stereo unspecified), for which, under setting [7], the survivor count is listed as 1 of 6.
As to `CS(=O)(=O)C#CCCCCCCC#CS(C)(=O)=O`, the survivor count (dose: 100.0 mg/kg/injection, schedule: Q04DX002 (ip), vehicle: saline) was 2 of 6; the survivor count (dose: 200.0 mg/kg/injection, schedule: Q04DX002 (ip), vehicle: saline) was 3 of 6; the survivor count (dose: 400.0 mg/kg/injection, schedule: Q04DX002 (ip), vehicle: saline) is listed as 4 of 6.
Take `Nc1ccc2cc3ccc(N)cc3nc2c1`: the T/C is 126 % of control (dose: 7.5 mg/kg/injection, schedule: Q01DX005 (ip), vehicle: saline); 125 % of control (dose: 16.5 mg/kg/injection, schedule: Q01DX009 (ip), vehicle: saline); 127 % of control [5 of 6 alive] (dose: 25.0 mg/kg/injection, schedule: Q01DX009 (ip), vehicle: saline, evaluated on day 20); 135 % of control (dose: 25.0 mg/kg/injection, schedule: Q01DX009 (ip), vehicle: saline, evaluated on day 30); 125 % of control [5 of 6 alive] (dose: 37.5 mg/kg/injection, schedule: Q01DX009 (ip), vehicle: saline). Moreover, the survivor count is reported as 5 of 6 (dose: 30.0 mg/kg/injection, schedule: Q01DX005 (ip), vehicle: saline); 2 of 6 (dose: 60.0 mg/kg/injection, schedule: Q01DX005 (ip), vehicle: suspension in saline); 4 of 6 (dose: 100.0 mg/kg/injection, schedule: Q04DX003 (ip), vehicle: saline); 0 of 6 (dose: 120.0 mg/kg/injection, schedule: Q01DX005 (ip), vehicle: suspension in saline); 0 of 6 (dose: 200.0 mg/kg/injection, schedule: Q04DX003 (ip), vehicle: saline); 0 of 6 (dose: 240.0 mg/kg/injection, schedule: Q01DX005 (ip), vehicle: suspension in saline).
Regarding `O=[N+]([O-])c1cccc2c(-c3nccc4c([N+](=O)[O-])cccc34)nccc12`, under setting [9], the survivor count is 4 of 5.
With `CN(C)CCCN1c2ccccc2Sc2ccc(F)cc21`, the survivor count is, setting by setting: (dose: 100.0 mg/kg/injection, schedule: Q01DX009 (ip), vehicle: saline) 1 of 6; under setting [11], 0 of 6.
On to `CC1CC(OC(=O)CSC#N)CC(C)(C)C1` (stereo unspecified), for which the survivor count by setting is: under setting [8], 0 of 6; under setting [9], 0 of 6.
Take `OCC(O)C(O)C(O)/C=N\Nc1ccccc1` (stereo unspecified): under setting [11], the survivor count is reported as 6 of 6.
Consider `Clc1ccc(C(c2ccccc2)N2CCNCC2)cc1` (stereo unspecified), for which the survivor count is, setting by setting: under setting [1], 3 of 6; under setting [12], 0 of 6.
As to `COc1cc(/C=N\N=C\c2cc(OC)c(OC)c(OC)c2)cc(OC)c1OC`, the survivor count (dose: 100.0 mg/kg/injection, schedule: Q04DX003 (ip), vehicle: saline with Tween-80) was 6 of 6 and the survivor count under setting [12] is listed as 6 of 6.
As for `c1ccc2c(c1)Sc1ccccc1N2Cc1cnc[nH]1`, the T/C by setting is: (dose: 50.0 mg/kg/injection, schedule: Q01DX009 (ip), vehicle: alcohol) 141 % of control; (dose: 100.0 mg/kg/injection, schedule: Q01DX009 (ip), vehicle: alcohol) 146 % of control. In addition, the survivor count (dose: 200.0 mg/kg/injection, schedule: Q01DX009 (ip), vehicle: alcohol) is 0 of 6 and 3 of 6.
Turning to `Cc1c([O-])[n+](Cc2ccccc2)nn1C`, the survivor count by setting is: (dose: 50.0 mg/kg/injection, schedule: Q01DX009 (ip), vehicle: water) 3 of 3; (dose: 100.0 mg/kg/injection, schedule: Q01DX009 (ip), vehicle: water) 3 of 3; (dose: 200.0 mg/kg/injection, schedule: Q01DX009 (ip), vehicle: water) 3 of 3; (dose: 400.0 mg/kg/injection, schedule: Q01DX009 (ip), vehicle: water) 3 of 3.
